Assay results: PubChem BioAssay
The list shows a part of the results. Further columns of the screen follow, without active or inactive calls.

Assay: PubChem AID 1586
Conditions: yeast two-hybrid polyglutamine protein interaction, reporter readout; measured here: averaged growth delta OD

| Compound | signal change (36 h minus 0 h) |
| --- | --- |
| CC(C)CC1C(=O)N2CCC[C@H]2C2(O)O[C@](NC(=O)C3C=C4c5cccc6[nH]c(Br)c(c56)C[C@H]4N(C)C3)(C(C)C)C(=O)N12 (stereo partly drawn) | 0.0967 |
| CC(NCCC(c1ccccc1)c1ccccc1)c1ccccc1 (stereo not drawn) | 0.195 |
| CCN(CC)CCNc1ccc(CO)c2sc3ccccc3c(=O)c12 | 0.0956 |
| C[N+](C)(C)CCOC(N)=O | 0.0988 |
| COc1ccc(C[C@H](N)C(=O)N[C@@H]2[C@@H](CO)OC(n3cnc4c(N(C)C)ncnc43)[C@@H]2O)cc1 (stereo partly drawn) | 0.21 |
| Nc1c2c(nc3ccccc13)CCCC2 | 0.144 |
| CC(C)C(=O)Nc1ccc([N+](=O)[O-])c(C(F)(F)F)c1 | 0.142 |
| CCOC(=O)N1CCC(=C2c3ccc(Cl)cc3CCc3cccnc32)CC1 | 0.119 |
| NCCCCNCCCN | 0.293 |
| OCC(S)CS (stereo not drawn) | 0.201 |
| CCCCC(=O)OC1(C(=O)CO)C(C)CC2C3CCC4=CC(=O)C=CC4(C)[C@@]3(F)[C@@H](O)CC21C (stereo partly drawn) | -0.102 |
| O=c1cc(-c2ccc(O)cc2)oc2cc(O)cc(O)c12 | 0.0872 |
| Oc1c(Cl)cc(Cl)cc1Sc1cc(Cl)cc(Cl)c1O | 0.0333 |
| Nc1c(Br)cc(Br)cc1CNC1CCC(O)CC1 (stereo not drawn) | 0.0864 |
| CN(C)CCOC(c1ccc(Cl)cc1)c1ccccn1 (stereo not drawn) | 0.104 |
| CC1(C)O[C@@H]2CC3C4C[C@H](F)C5=CC(=O)C=CC5(C)C4C(O)CC3(C)[C@]2(C(=O)CO)O1 (stereo partly drawn) | 0.166 |
| CC(=O)OCC(=O)[C@@]1(O)[C@H](C)CC2C3CCC4=CC(=O)C=C[C@]4(C)[C@@]3(F)[C@@H](O)C[C@@]21C (stereo partly drawn) | 0.44 |
| CC[C@H]1OC(=O)[C@H](C)[C@@H](O[C@H]2C[C@@](C)(OC)[C@@H](O)[C@H](C)O2)[C@H](C)[C@@H](O[C@@H]2O[C@H](C)C[C@H](N(C)C)[C@H]2O)[C@](C)(O)C[C@@H](C)CN(C)[C@H](C)[C@@H](O)[C@]1(C)O | 0.131 |

Reprinted at random: 2 records from the list

| Compound | signal change (36 h minus 0 h) |
| --- | --- |
| CC(=O)OCC(=O)[C@@]1(O)[C@H](C)CC2C3CCC4=CC(=O)C=C[C@]4(C)[C@@]3(F)[C@@H](O)C[C@@]21C (stereo partly drawn) | 0.44 |
| NCCCCNCCCN | 0.293 |
